These are yes or no findings as the source states them, for the method shown. In cells and extracts the contact can be indirect. Some results given as binding are weak or reduced against the parent protein; the word gives no strength. For some of these results: Sequences can lack the tags named with a protein.

Protein sequences, listed by entry. Tags and fused reporters are not part of them. Residues count along the entry.
UniProt Q6YHK3, residues 22-1420: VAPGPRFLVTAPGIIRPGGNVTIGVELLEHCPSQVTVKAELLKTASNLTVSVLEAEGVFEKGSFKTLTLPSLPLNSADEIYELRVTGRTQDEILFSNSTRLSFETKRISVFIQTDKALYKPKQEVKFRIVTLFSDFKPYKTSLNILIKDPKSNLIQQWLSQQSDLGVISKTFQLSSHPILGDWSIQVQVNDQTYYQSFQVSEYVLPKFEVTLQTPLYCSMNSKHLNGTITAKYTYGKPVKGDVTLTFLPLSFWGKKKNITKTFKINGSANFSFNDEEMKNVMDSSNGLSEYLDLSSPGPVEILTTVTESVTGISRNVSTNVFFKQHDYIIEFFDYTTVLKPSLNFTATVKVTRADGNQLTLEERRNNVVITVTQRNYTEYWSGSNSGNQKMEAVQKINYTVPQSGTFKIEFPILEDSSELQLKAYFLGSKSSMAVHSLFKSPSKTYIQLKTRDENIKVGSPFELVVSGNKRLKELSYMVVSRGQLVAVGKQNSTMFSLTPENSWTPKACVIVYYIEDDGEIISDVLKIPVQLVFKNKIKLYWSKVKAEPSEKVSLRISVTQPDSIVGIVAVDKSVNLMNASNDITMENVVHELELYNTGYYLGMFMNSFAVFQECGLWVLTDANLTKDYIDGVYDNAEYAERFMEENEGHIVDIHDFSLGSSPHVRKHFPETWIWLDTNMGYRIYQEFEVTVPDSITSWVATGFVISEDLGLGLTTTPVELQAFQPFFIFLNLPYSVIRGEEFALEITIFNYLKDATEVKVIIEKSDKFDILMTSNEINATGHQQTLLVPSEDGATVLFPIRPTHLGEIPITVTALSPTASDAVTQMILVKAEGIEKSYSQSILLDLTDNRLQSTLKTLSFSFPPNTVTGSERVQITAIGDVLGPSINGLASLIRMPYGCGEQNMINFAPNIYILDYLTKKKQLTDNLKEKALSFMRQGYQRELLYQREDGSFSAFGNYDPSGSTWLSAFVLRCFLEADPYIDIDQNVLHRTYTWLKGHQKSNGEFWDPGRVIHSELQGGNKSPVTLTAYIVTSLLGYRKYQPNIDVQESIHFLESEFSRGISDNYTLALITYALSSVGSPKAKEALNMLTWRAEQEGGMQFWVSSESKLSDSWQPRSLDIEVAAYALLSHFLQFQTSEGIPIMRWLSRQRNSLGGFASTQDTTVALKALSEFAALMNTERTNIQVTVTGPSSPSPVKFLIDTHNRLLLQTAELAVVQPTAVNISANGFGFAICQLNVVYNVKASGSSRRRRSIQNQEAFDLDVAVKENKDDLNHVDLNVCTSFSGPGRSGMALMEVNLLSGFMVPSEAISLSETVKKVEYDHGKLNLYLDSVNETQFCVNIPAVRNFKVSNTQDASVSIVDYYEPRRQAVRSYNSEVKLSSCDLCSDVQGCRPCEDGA
UniProt Q704Y3: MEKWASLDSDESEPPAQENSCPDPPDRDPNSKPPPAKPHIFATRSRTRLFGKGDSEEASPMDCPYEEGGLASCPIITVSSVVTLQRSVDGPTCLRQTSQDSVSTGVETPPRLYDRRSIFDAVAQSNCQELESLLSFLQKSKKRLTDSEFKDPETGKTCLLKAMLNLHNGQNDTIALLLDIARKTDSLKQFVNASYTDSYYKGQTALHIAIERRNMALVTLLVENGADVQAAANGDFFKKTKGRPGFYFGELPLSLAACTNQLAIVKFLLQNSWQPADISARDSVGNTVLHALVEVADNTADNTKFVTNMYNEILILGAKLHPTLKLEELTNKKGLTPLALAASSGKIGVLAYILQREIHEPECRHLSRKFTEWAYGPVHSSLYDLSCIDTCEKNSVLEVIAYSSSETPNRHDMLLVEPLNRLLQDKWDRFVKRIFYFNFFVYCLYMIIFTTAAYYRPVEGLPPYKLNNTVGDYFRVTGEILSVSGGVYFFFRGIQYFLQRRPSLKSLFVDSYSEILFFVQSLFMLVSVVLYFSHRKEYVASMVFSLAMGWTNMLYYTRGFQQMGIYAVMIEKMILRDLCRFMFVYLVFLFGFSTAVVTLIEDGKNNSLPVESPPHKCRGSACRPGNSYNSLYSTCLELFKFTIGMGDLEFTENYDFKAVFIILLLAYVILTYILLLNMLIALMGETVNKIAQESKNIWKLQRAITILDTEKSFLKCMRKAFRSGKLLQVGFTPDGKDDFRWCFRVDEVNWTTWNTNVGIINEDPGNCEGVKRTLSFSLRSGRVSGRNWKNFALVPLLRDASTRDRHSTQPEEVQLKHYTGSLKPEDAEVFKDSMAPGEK

The target of test [1] is GST-labeled recombinant CD109 protein (UniProt Q6YHK3). The experiment in a line: pull-down; GST pull-down with GST-labeled recombinant CD109 and proteins of DRG cells; silver staining, band at 71-117 kDa identified as TRPV1; only the target purified.
In test [2] the target is CD109 (as in the co-IP and PLA with TRPV1 of DRG cells) (UniProt Q6YHK3). The experiment in a line: co-IP; CD109 and TRPV1, DRG cells.
For test [3] the target is unchanged. The test is described as follows: proximity ligation; PLA of CD109 and TRPV1 on the membrane of DRG cells.
A further test addresses T1, His-labeled Rab5B (UniProt P61020).
T1 sequence: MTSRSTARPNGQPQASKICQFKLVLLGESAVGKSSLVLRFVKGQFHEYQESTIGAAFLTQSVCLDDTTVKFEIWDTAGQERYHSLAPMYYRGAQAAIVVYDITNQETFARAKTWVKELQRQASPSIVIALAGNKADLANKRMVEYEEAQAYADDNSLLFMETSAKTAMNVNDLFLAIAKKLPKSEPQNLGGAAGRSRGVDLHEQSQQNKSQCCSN
The experiment in a line: co-IP; His-labeled Rab5B in PANC-1 cells; with CD109 knockdown, CD109 overexpression, circPNIT knockdown.

For “TRPV1 (from UniProt Q704Y3 1-839) (receptor)”, the binding entry in test [1], in test [2] and in test [3] was “binds” in each case.

B1: Flotillin 1 (protein, UniProt O75955 1-427)
chain: MFFTCGPNEAMVVSGFCRSPPVMVAGGRVFVLPCIQQIQRISLNTLTLNVKSEKVYTRHGVPISVTGIAQVKIQGQNKEMLAAACQMFLGKTEAEIAHIALETLEGHQRAIMAHMTVEEIYKDRQKFSEQVFKVASSDLVNMGISVVSYTLKDIHDDQDYLHSLGKARTAQVQKDARIGEAEAKRDAGIREAKAKQEKVSAQYLSEIEMAKAQRDYELKKAAYDIEVNTRRAQADLAYQLQVAKTKQQIEEQRVQVQVVERAQQVAVQEQEIARREKELEARVRKPAEAERYKLERLAEAEKSQLIMQAEAEAASVRMRGEAEAFAIGARARAEAEQMAKKAEAFQLYQEAAQLDMLLEKLPQVAEEISGPLTSANKITLVSSGSGTMGAAKVTGEVLDILTRLPESVERLTGVSISQVNHKPLRTA
Take B1: the binding result with His-labeled Rab5B is recorded as “binds”.

The record behind these values is article PMC11653710.
